Laboratory results published in patent US20150285810A1.
Results are given in words; binding and its absence hold for the method and conditions named. For some assays here: Binding calls can cover weak binding; strength is not graded here. Where a sequence is shown, tags or fusion partners need not be part of it.

Experiments:
[1] = biological target: purified cyclin B1/cdk1 complex; assay: GST-fragment beads incubated with cyclin B1/cdk1 complex in NP40 buffer, Western blot
[2] = biological target: purified cyclin B1/cdk1 complex; assay: condition: 0.2 µg/ml cyclin B1/cdk1 complex on beads pre-bound with 5 µg fragment; GST-fragment beads incubated with cyclin B1/cdk1 complex in NP40 buffer, Western blot

binding [1] | binding [2] | Binder
binds | – | iASPP (1-240)-GST (protein, not shown: a dimerising Fc or GST) MDSEAFQSARDFLDMNFQSLAMKHMDLKQMELDTAAAKVDELTKQLESLWSDSPAPPGPQAGPPSRPPRYSSSSIPEPFGSRGSPRKAATDGADTPFGRSESAPTLHPYSPLSPKGRPSSPRTPLYLQPDAYGSLDRATSPRPRAFDGAGSSLGRAPSPRPGPGPLRQQGPPTPFDFLGRAGSPRGSPLAEGPQAFFPERGPSPRPPATAYDAPASAFGSSLLGSGGSAFAPPLRAQDDL
– | no binding | iASPP (249-482)-GST (protein, not shown: a dimerising Fc or GST) AWNESDLDVAYEKKPSQTASYERLDVFARPASPSLQLLPWRESSLDGLGGTGKDNLTSATLPRNYKVSPLASDRRSDAGSYRRSLGSAGPSGTLPRSWQPVSRIPMPPSSPQPRGAPRQRPIPLSMIFKLQNAFWEHGASRAMLPGSPLFTRAPPPKLQPQPQPQPQPQSQPQPQLPPQPQTQPQTPTPAPQHPQQTWPPVNEGPPKPPTELEPEPEIEGLLTPVLEAGDVDEG
